Assay results from patent US20220411799.

How the values were obtained:
DNMT3A = DNMT3A (UniProt Q9Y6K1); assay: inhibition of the protein; settings: 2'-F pyrimidines, no effect on enzymatic activity, purified recombinant protein, label: 3'-biotin (ELONA, pulldown), dose not given here
DNMT3B = DNMT3B (UniProt Q9UBC3); assay: inhibition of the protein; settings: 2'-F pyrimidines, no effect on enzymatic activity, purified recombinant protein, label: 3'-biotin (ELONA, pulldown), dose not given here
[1] = target: DNMT1 (endogenous) (Homo sapiens) (UniProt P26358); assay: pull-down; settings: 2'-F pyrimidines, 200 nM biotinylated aptamer, K562 extract, protein in an extract, protein details: K562 cell extract, label: 3'-biotin (ELONA, pulldown)
[2] = target: DNMT1 (endogenous) (Homo sapiens) (UniProt P26358); assay: activity in cells; settings: 2'-F pyrimidines, nuclear extracts of transfected K562 cells, protein in an extract, protein details: K562 cell extract, dose not given here
DNMT1 (Homo sapiens) = DNMT1 (Homo sapiens) (UniProt P26358); assay: EMSA; settings: 2'-F pyrimidines; two alternative secondary structures of R5F; purified recombinant protein; label: 3'-biotin (ELONA, pulldown)
[3] = variant of Ce-10 (long, 61-mer)

Sequence	functional effect of the aptamer (DNMT3A)	functional effect of the aptamer (DNMT3B)	binding result [1]	functional effect of the aptamer [2]	functional effect of the aptamer (DNMT3A; [3])	functional effect of the aptamer (DNMT3B; [3])	binding result [1, 3]	functional effect of the aptamer [2, 3]	binding result (DNMT1 (Homo sapiens))
CUGAGGCCUAACGAAGGCUUCU [Ce-49 sh]	not active	not active	binds	active	–	–	–	–	–
UUACUGGGCUGAGGUAAUGGCGAGG [Ce-10-2 sh]	–	–	–	–	not active	not active	binds	active	–
CUGAGGCCUUGGCGAGGCUUCU [R5-F (DNMT1 bait)]	not active	not active	binds	–	–	–	–	–	binds more weakly

For part of these data: No signal at the amounts used counts as a negative. For part of these data: The comparison behind a weaker result is the experiment's own reference, which may not be listed here. For part of these data: The exact form of at least one protein or probe is not confirmed. For part of these data: Results from cells or extracts need not show a direct contact.
